The list shows a part of the results. The main result of the screen is listed elsewhere. These columns were measured beside it and carry no call. Most of these compounds were active or inconclusive in the main read-out, so they are no random draw. Potencies come from curve fits of mixed quality, noted in brackets.
Test: qHTS Assay to Find Inhibitors of Chronic Active B-Cell Receptor Signaling
Conditions: ABC-DLBCL IkBa-CBG/CBR reporter, luminescence ratio (green luciferase fused to IkBa over red control in TMD8 lymphoma cells), 4 h
Summary of the method: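 Concentration-response series (up to 46 uM) were applied to TMD8 dual-reporter cells for 4 h at 37C with doxycycline. Green/red ratio, after filter-overlap correction, defined %Activity; red signal alone was normalised to basal cells and zero luminescence.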

[1] = measured here: CBR red luminescence, cell number

Compound | AC50 [1] | AC50 (measured here: IkBa-CBG green luminescence)
CCn1nc(C)c(/C=N/NC(=O)Cn2cncn2)c1C | 4.47 µM [falling, partial curve, poor fit] | –
COC(=O)c1c(S(=O)(=O)NCc2ccccc2)sc(C(=O)O)c1C | 20.6 µM [falling, single point] | –
CCOC(=O)C(=CNc1cccc(C)n1)C(=O)OCC | 11.2 µM [falling, partial curve] | –
O=C(Nc1ccc(Nc2ccncc2)cc1)c1ccc(Nc2ccnc3ccc([N+](=O)[O-])cc23)cc1[N+](=O)[O-] | 3.98 µM [falling, full curve, poor fit] | –
C/C=C(/C)C(=O)OC1Cc2c(ccc3ccc(=O)oc23)OC1(C)C (configuration not stated) | 11.2 µM [falling, partial curve] | –
O=C(CCn1nnc2ccccc21)OCC(=O)c1ccc([N+](=O)[O-])cc1 | 0.112 µM [falling, full curve, poor fit] | –
CS/C(=N\S(=O)(=O)c1cccs1)Nc1ccc(F)cc1 | 20.6 µM [falling, single point] | –
Cc1ccc(-c2nc3scc(CCNS(=O)(=O)c4ccc(Oc5ccccc5)cc4)n3n2)cc1 | – | 11.2 µM [falling, partial curve, poor fit]
Cc1cccc(/C(N)=N/OC(=O)N2c3ccccc3Sc3ccccc32)c1 | 1.12 µM [rising, full curve, poor fit] | –
Cc1ccc(C)c(OC2=NS(=O)(=O)c3ccccc32)c1 | 0.112 µM [rising, full curve, poor fit] | –
COc1ccc(NC(=O)COC(=O)CC2CCCC2)cc1 | 0.517 µM [rising, full curve] | –
N#Cc1ccccc1NC(=O)CN1C(=O)NC(Cc2c[nH]c3ccccc23)C1=O (configuration not stated) | 10.3 µM [falling, partial curve, poor fit] | –
O=C(NNC(=O)c1ccccc1Br)c1ccc2nc[nH]c2c1 | 35.5 µM [falling, single point] | –
COc1ccc(NC(=O)c2cc3ccccc3o/c2=N\NS(=O)(=O)c2ccc(C)cc2)cc1 | 20 µM [falling, partial curve, poor fit] | –
CCOc1ccc(S(=O)(=O)Nc2ccc(C(=O)N/N=C(\C)c3ccc(-n4ccnc4)cc3)cc2)cc1 | 0.146 µM [falling, full curve, poor fit] | –
CCOC(=O)Nc1sc2c(c1C(=O)OCC)CCC2 | 6.51 µM [rising, partial curve, poor fit] | –
CN1CCN(c2nc3c(c(=O)n(C)c(=O)n3C)n2Cc2cccc(Br)c2)CC1 | 35.5 µM [falling, single point] | –

Pulled one by one from the list above, two records:
Compound | AC50 [1] | AC50 (measured here: IkBa-CBG green luminescence)
O=C(NNC(=O)c1ccccc1Br)c1ccc2nc[nH]c2c1 | 35.5 µM [falling, single point] | –
O=C(CCn1nnc2ccccc21)OCC(=O)c1ccc([N+](=O)[O-])cc1 | 0.112 µM [falling, full curve, poor fit] | –
